In the test the target is T1, recombinant mouse short-form Klotho with C-terminal Flag and 6xHis (HEK293) (mouse) (UniProt O35082).
T1 sequence (chain, N-glycosylated at N161, N285 and N346): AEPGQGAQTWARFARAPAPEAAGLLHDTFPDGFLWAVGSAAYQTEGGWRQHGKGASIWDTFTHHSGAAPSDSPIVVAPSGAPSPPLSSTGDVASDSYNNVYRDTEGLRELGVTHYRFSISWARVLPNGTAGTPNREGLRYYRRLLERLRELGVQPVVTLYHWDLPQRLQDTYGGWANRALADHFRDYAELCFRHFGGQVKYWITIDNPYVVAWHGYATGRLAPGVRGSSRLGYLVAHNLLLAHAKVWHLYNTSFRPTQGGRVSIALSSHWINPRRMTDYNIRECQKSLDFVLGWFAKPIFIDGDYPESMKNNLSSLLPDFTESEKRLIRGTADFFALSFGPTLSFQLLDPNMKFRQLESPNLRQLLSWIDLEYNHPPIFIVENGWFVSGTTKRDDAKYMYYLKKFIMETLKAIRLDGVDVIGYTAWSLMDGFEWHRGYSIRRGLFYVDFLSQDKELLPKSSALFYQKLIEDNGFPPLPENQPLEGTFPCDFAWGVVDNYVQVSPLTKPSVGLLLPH
Kind of test: affinity purification with mass spectrometry; lysates of HEK293 cells expressing Skl-Flag-6xHis, Klotho or Flag antibody on IP-Direct beads, low-pH elution, SDS-PAGE, in-gel trypsin digest, nano-LC-nano-ESI MS/MS, Mascot search of Swiss-Prot; compared with control cells.

Chains of the proteins cited; added tags and fusions are not shown.
UniProt Q9ULV4: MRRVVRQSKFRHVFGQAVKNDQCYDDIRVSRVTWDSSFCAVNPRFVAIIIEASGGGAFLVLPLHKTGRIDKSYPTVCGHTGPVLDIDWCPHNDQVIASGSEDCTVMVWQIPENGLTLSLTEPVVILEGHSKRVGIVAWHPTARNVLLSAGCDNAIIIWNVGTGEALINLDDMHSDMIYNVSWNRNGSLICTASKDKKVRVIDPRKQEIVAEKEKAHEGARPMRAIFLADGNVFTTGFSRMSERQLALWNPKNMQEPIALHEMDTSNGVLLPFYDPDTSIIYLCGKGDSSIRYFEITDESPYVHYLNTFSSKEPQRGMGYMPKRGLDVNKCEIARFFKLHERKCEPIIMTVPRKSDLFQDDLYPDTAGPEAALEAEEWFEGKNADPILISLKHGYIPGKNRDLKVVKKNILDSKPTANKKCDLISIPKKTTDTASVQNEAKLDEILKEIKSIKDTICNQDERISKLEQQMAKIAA
UniProt O60884: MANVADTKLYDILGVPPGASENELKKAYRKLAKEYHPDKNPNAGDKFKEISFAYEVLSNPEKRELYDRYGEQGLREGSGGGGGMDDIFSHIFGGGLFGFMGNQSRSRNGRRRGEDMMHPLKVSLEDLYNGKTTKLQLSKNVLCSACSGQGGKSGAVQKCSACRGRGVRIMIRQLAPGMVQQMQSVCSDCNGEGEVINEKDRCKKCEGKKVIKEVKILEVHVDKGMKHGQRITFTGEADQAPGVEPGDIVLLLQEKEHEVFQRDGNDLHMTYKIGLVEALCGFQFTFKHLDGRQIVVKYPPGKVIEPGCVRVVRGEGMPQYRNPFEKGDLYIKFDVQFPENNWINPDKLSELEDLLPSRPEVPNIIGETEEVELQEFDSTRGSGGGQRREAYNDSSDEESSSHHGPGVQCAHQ
UniProt P26641: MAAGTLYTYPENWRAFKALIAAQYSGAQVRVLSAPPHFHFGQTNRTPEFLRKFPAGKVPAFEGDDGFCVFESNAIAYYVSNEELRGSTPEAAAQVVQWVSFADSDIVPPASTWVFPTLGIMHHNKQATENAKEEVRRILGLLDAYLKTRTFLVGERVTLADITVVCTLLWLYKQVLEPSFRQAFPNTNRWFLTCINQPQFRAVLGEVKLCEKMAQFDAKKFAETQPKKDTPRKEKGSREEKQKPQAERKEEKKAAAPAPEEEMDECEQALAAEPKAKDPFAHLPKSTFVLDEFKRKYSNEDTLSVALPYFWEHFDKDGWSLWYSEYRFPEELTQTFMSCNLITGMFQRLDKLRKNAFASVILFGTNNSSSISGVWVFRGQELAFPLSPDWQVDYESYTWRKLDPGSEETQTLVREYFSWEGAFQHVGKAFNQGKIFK
UniProt P41091: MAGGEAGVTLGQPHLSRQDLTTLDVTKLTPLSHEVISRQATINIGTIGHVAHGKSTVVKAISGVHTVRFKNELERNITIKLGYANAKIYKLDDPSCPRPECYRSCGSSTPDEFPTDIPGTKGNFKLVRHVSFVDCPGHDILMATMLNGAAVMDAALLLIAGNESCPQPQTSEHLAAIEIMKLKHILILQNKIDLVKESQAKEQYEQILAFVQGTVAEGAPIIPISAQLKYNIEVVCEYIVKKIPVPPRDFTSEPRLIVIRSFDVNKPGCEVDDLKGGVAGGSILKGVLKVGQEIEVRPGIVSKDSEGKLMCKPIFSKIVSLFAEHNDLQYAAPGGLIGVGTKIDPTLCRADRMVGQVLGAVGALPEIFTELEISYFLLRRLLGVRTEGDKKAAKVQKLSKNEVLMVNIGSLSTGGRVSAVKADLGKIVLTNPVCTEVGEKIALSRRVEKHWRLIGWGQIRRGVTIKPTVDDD
UniProt O75821: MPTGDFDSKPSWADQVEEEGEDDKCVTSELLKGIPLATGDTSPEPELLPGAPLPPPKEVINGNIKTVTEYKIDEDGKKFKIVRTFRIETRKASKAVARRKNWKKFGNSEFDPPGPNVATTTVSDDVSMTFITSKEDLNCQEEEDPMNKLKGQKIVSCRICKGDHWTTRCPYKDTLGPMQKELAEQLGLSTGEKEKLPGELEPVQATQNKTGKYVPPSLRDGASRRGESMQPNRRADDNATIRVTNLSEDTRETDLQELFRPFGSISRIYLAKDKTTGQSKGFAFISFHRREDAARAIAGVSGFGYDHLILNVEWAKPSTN
UniProt P35580: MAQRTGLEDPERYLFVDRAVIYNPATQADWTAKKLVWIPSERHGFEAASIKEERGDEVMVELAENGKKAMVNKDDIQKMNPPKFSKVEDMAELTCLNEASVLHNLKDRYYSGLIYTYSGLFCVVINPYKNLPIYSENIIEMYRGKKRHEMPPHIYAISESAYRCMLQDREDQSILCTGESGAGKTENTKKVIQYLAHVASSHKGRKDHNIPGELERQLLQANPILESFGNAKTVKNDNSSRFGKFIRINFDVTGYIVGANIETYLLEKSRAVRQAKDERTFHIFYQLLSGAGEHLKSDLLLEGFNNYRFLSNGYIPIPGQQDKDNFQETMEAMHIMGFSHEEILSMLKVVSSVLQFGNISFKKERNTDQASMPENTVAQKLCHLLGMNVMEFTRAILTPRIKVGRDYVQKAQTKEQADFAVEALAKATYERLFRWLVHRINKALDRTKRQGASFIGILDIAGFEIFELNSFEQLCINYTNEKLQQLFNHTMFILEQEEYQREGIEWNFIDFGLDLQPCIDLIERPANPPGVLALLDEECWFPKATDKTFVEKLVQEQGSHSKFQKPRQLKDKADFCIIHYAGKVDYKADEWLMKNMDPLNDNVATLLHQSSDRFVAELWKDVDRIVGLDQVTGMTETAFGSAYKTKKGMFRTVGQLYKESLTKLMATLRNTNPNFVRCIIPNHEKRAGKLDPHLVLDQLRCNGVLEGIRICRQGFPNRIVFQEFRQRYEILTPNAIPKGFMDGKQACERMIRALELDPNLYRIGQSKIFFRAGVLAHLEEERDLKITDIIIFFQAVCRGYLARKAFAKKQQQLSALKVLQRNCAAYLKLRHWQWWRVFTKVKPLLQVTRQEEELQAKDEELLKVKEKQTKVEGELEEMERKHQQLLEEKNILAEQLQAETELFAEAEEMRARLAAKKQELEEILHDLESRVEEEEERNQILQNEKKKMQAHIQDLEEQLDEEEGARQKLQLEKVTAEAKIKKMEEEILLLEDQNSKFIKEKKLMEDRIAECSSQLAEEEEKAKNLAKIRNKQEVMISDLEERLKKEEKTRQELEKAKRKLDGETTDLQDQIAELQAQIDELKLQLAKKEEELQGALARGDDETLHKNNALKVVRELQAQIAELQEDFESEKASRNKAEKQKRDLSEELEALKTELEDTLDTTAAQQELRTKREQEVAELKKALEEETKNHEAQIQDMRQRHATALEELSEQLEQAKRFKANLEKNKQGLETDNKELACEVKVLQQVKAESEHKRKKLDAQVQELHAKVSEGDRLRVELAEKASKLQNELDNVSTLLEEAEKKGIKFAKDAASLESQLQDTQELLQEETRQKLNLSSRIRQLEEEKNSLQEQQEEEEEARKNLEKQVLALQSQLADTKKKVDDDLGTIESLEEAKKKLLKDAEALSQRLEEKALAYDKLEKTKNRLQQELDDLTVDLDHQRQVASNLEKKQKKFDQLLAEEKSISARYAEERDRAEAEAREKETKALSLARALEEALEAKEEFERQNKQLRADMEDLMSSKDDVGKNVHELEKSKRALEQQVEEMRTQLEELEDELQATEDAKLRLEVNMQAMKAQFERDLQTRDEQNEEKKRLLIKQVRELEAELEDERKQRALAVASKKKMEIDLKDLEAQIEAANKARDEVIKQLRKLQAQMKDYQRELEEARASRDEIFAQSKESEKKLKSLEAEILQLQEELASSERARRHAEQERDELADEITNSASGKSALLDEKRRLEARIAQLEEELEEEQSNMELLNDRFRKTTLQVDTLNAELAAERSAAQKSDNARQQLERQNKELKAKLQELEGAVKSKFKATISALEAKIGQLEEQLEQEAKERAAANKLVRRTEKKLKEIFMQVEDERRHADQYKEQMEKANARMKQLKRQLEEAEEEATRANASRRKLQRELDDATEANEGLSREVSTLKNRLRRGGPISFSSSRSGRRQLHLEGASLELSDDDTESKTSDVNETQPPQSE
UniProt P46940: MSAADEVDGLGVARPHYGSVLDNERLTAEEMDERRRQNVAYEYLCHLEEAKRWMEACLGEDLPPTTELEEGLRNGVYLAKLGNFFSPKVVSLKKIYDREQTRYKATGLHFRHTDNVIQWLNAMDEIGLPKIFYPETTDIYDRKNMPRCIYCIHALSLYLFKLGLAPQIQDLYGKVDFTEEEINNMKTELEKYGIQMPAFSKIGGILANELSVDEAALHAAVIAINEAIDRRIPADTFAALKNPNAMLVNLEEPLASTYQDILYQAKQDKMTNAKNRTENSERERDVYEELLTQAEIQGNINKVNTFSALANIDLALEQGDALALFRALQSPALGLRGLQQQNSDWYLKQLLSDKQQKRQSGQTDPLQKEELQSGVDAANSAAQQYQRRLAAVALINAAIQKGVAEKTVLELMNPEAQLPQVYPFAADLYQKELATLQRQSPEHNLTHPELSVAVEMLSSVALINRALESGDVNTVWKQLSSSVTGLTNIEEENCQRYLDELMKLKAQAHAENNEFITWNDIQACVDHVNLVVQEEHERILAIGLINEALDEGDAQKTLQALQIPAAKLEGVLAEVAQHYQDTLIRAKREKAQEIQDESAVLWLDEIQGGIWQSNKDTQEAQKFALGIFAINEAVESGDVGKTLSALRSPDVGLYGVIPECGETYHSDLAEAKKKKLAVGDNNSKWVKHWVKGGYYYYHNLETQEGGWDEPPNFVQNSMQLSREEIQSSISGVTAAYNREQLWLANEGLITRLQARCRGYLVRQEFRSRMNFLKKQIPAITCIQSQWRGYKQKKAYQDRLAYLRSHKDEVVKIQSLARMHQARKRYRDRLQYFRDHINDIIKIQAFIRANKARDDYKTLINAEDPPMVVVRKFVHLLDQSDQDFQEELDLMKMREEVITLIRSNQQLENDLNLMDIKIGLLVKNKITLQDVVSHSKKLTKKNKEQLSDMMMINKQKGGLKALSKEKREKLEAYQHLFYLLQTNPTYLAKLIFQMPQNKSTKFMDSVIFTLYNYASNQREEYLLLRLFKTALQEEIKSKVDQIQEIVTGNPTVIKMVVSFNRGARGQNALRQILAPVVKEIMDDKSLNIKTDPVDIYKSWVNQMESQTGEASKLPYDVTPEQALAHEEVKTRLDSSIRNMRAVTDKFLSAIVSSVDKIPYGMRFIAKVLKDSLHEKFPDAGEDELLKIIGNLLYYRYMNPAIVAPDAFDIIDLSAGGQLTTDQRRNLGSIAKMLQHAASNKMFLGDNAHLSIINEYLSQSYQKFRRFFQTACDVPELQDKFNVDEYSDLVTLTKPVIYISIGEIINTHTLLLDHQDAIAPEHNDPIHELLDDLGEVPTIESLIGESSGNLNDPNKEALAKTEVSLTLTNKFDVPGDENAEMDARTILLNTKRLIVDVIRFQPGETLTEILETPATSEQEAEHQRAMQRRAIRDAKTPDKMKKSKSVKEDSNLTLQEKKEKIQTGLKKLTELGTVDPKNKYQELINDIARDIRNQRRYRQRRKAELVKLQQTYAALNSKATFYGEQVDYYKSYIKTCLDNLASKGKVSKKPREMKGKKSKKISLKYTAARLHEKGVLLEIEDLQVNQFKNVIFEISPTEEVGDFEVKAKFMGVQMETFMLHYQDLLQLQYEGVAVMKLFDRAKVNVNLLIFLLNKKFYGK
UniProt P27694: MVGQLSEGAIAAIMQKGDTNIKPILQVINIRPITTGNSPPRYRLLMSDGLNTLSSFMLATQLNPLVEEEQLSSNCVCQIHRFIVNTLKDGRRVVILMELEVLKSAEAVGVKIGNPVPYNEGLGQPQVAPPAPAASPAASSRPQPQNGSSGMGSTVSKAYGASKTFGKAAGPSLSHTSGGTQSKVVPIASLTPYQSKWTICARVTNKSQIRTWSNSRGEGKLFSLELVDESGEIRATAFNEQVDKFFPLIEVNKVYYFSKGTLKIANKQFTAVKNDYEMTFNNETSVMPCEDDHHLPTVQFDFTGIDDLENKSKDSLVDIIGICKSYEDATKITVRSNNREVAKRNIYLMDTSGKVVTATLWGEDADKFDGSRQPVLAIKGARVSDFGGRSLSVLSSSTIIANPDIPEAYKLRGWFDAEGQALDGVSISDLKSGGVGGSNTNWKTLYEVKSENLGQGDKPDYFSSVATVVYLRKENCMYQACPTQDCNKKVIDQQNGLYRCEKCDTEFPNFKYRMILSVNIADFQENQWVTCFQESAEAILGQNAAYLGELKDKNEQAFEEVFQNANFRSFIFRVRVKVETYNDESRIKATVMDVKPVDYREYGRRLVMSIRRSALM

These are yes or no findings as the source states them, for the method shown. In cells and extracts the contact can be indirect. A yes stands for co-enrichment or nearness to the bait. Other partners may have been found. Where a sequence is shown, tags or fusion partners need not be part of it.

For “26S protease regulatory subunit 6B (from UniProt P43686 1-418)”, the binding result is “binds”.

For “60 kDa heat shock protein, mitochondrial (from UniProt P10809 27-573)”, the binding entry was “binds”.

As for “78 kDa glucose-regulated protein (from UniProt P11021 19-654)”, the binding entry is given as “binds”.

As to “Alpha-actinin-1 (from UniProt P12814 1-892)”, the binding entry is listed as “binds”.

As to “Alpha-actinin-4 (from UniProt O43707 1-911)”, the binding result was “binds”.

Consider Annexin A5 (from UniProt P08758 1-320), for which the binding entry is “binds”.

With Coronin-1C (from UniProt Q9ULV4 1-474), the binding result is “binds”.

For “DnaJ homolog subfamily A member 2 (from UniProt O60884 1-412)”, the binding entry is recorded as “binds”.

As for “Elongation factor 1-gamma (from UniProt P26641 1-437)”, the binding entry was “binds”.

In the case of “Eukaryotic translation initiation factor 2 subunit 3 (from UniProt P41091 1-472)”, the binding result was “binds”.

Turning to “Eukaryotic translation initiation factor 3 subunit G (from UniProt O75821 1-320)”, the binding result is “binds”.

In the case of Myosin-9 (from UniProt P35579 1-1960), the binding result is recorded as “binds”.

As to Myosin-10 (from UniProt P35580 1-1976), the binding result is “binds”.

With “POTE ankyrin domain family member E (from UniProt Q6S8J3 1-1075)”, the binding result is reported as “binds”.

Take “Polyadenylate-binding protein 1 (from UniProt P11940 1-636)”: the binding result is recorded as “binds”.

In the case of “Probable ATP-dependent RNA helicase DDX5 (from UniProt P17844 1-614)”, the binding entry is listed as “binds”.

Consider “Ras GTPase-activating-like protein IQGAP1 (from UniProt P46940 1-1657)”, for which the binding result was “binds”.

On to “Replication protein A 70 kDa DNA-binding subunit (from UniProt P27694 1-616)”, for which the binding result is “binds”.

With “Spectrin alpha chain, non-erythrocytic 1 (from UniProt Q13813 1-2472)”, the binding result is “binds”.

Consider “Spectrin beta chain, non-erythrocytic 1 (from UniProt Q01082 1-2364)”, for which the binding entry is given as “binds”.

As for “X-ray repair cross-complementing protein 5 (from UniProt P13010 1-732)”, the binding result is on record as “binds”.

B1: EF-hand domain-containing protein D1 (protein, UniProt Q9BUP0 1-239)
chain: MASEELACKLERRLRREEAEESGPQLAPLGAPAPEPKPEPEPPARAPTASADAELSAQLSRRLDINEGAARPRRCRVFNPYTEFPEFSRRLIKDLESMFKLYDAGRDGFIDLMELKLMMEKLGAPQTHLGLKSMIKEVDEDFDGKLSFREFLLIFHKAAAGELQEDSGLMALAKLSEIDVALEGVKGAKNFFEAKVQALSSASKFEAELKAEQDERKREEEERRLRQAAFQKLKANFNT
As to B1, the binding entry is reported as “binds”.

B2: Peroxiredoxin-6 (protein, UniProt P30041 1-224)
chain: MPGGLLLGDVAPNFEANTTVGRIRFHDFLGDSWGILFSHPRDFTPVCTTELGRAAKLAPEFAKRNVKLIALSIDSVEDHLAWSKDINAYNCEEPTEKLPFPIIDDRNRELAILLGMLDPAEKDEKGMPVTARVVFVFGPDKKLKLSILYPATTGRNFDEILRVVISLQLTAEKRVATPVDWKDGDSVMVLPTIPEEEAKKLFPKGVFTKELPSGKKYLRYTPQP
Consider B2, for which the binding result was “binds”.

B3: Plastin-3 (protein, UniProt P13797 1-630)
chain: MDEMATTQISKDELDELKEAFAKVDLNSNGFICDYELHELFKEANMPLPGYKVREIIQKLMLDGDRNKDGKISFDEFVYIFQEVKSSDIAKTFRKAINRKEGICALGGTSELSSEGTQHSYSEEEKYAFVNWINKALENDPDCRHVIPMNPNTDDLFKAVGDGIVLCKMINLSVPDTIDERAINKKKLTPFIIQENLNLALNSASAIGCHVVNIGAEDLRAGKPHLVLGLLWQIIKIGLFADIELSRNEALAALLRDGETLEELMKLSPEELLLRWANFHLENSGWQKINNFSADIKDSKAYFHLLNQIAPKGQKEGEPRIDINMSGFNETDDLKRAESMLQQADKLGCRQFVTPADVVSGNPKLNLAFVANLFNKYPALTKPENQDIDWTLLEGETREERTFRNWMNSLGVNPHVNHLYADLQDALVILQLYERIKVPVDWSKVNKPPYPKLGANMKKLENCNYAVELGKHPAKFSLVGIGGQDLNDGNQTLTLALVWQLMRRYTLNVLEDLGDGQKANDDIIVNWVNRTLSEAGKSTSIQSFKDKTISSSLAVVDLIDAIQPGCINYDLVKSGNLTEDDKHNNAKYAVSMARRIGARVYALPEDLVEVKPKMVMTVFACLMGRGMKRV
Consider B3, for which the binding result is “binds”.

B4: Heterogeneous nuclear ribonucleoprotein M (protein, UniProt P52272 1-730)
chain: MAAGVEAAAEVAATEIKMEEESGAPGVPSGNGAPGPKGEGERPAQNEKRKEKNIKRGGNRFEPYANPTKRYRAFITNIPFDVKWQSLKDLVKEKVGEVTYVELLMDAEGKSRGCAVVEFKMEESMKKAAEVLNKHSLSGRPLKVKEDPDGEHARRAMQKVMATTGGMGMGPGGPGMITIPPSILNNPNIPNEIIHALQAGRLGSTVFVANLDYKVGWKKLKEVFSMAGVVVRADILEDKDGKSRGIGTVTFEQSIEAVQAISMFNGQLLFDRPMHVKMDERALPKGDFFPPERPQQLPHGLGGIGMGLGPGGQPIDANHLNKGIGMGNIGPAGMGMEGIGFGINKMGGMEGPFGGGMENMGRFGSGMNMGRINEILSNALKRGEIIAKQGGGGGGGSVPGIERMGPGIDRLGGAGMERMGAGLGHGMDRVGSEIERMGLVMDRMGSVERMGSGIERMGPLGLDHMASSIERMGQTMERIGSGVERMGAGMGFGLERMAAPIDRVGQTIERMGSGVERMGPAIERMGLSMERMVPAGMGAGLERMGPVMDRMATGLERMGANNLERMGLERMGANSLERMGLERMGANSLERMGPAMGPALGAGIERMGLAMGGGGGASFDRAIEMERGNFGGSFAGSFGGAGGHAPGVARKACQIFVRNLPFDFTWKMLKDKFNECGHVLYADIKMENGKSKGCGVVKFESPEVAERACRMMNGMKLSGREIDVRIDRNA
Take B4: the binding result is “binds”.

B5: Heterogeneous nuclear ribonucleoprotein D-like (protein, UniProt O14979 1-420)
chain: MEVPPRLSHVPPPLFPSAPATLASRSLSHWRPRPPRQLAPLLPSLAPSSARQGARRAQRHVTAQQPSRLAGGAAIKGGRRRRPDLFRRHFKSSSIQRSAAAAAATRTARQHPPADSSVTMEDMNEYSNIEEFAEGSKINASKNQQDDGKMFIGGLSWDTSKKDLTEYLSRFGEVVDCTIKTDPVTGRSRGFGFVLFKDAASVDKVLELKEHKLDGKLIDPKRAKALKGKEPPKKVFVGGLSPDTSEEQIKEYFGAFGEIENIELPMDTKTNERRGFCFITYTDEEPVKKLLESRYHQIGSGKCEIKVAQPKEVYRQQQQQQKGGRGAAAGGRGGTRGRGRGQGQNWNQGFNNYYDQGYGNYNSAYGGDQNYSGYGGYDYTGYNYGNYGYGQGYADYSGQQSTYGKASRGGGNHQNNYQPY
B5: the binding entry is given as “binds”.

B6: Non-POU domain-containing octamer-binding protein (protein, UniProt Q15233 1-471)
chain: MQSNKTFNLEKQNHTPRKHHQHHHQQQHHQQQQQQPPPPPIPANGQQASSQNEGLTIDLKNFRKPGEKTFTQRSRLFVGNLPPDITEEEMRKLFEKYGKAGEVFIHKDKGFGFIRLETRTLAEIAKVELDNMPLRGKQLRVRFACHSASLTVRNLPQYVSNELLEEAFSVFGQVERAVVIVDDRGRPSGKGIVEFSGKPAARKALDRCSEGSFLLTTFPRPVTVEPMDQLDDEEGLPEKLVIKNQQFHKEREQPPRFAQPGSFEYEYAMRWKALIEMEKQQQDQVDRNIKEAREKLEMEMEAARHEHQVMLMRQDLMRRQEELRRMEELHNQEVQKRKQLELRQEEERRRREEEMRRQQEEMMRRQQEGFKGTFPDAREQEIRMGQMAMGGAMGINNRGAMPPAPVPAGTPAPPGPATMMPDGTLGLTPPTTERFGQAATMEGIGAIGGTPPAFNRAAPGAEFAPNKRRRY
Regarding B6, the binding result is recorded as “binds”.

B7: tRNA-splicing ligase RtcB homolog (protein, UniProt Q9Y3I0 1-505)
chain: MSRSYNDELQFLEKINKNCWRIKKGFVPNMQVEGVFYVNDALEKLMFEELRNACRGGGVGGFLPAMKQIGNVAALPGIVHRSIGLPDVHSGYGFAIGNMAAFDMNDPEAVVSPGGVGFDINCGVRLLRTNLDESDVQPVKEQLAQAMFDHIPVGVGSKGVIPMNAKDLEEALEMGVDWSLREGYAWAEDKEHCEEYGRMLQADPNKVSARAKKRGLPQLGTLGAGNHYAEIQVVDEIFNEYAAKKMGIDHKGQVCVMIHSGSRGLGHQVATDALVAMEKAMKRDKIIVNDRQLACARIASPEGQDYLKGMAAAGNYAWVNRSSMTFLTRQAFAKVFNTTPDDLDLHVIYDVSHNIAKVEQHVVDGKERTLLVHRKGSTRAFPPHHPLIAVDYQLTGQPVLIGGTMGTCSYVLTGTEQGMTETFGTTCHGAGRALSRAKSRRNLDFQDVLDKLADMGIAIRVASPKLVMEEAPESYKNVTDVVNTCHDAGISKKAIKLRPIAVIKG
Regarding B7, the binding result is given as “binds”.

B8: UPF0568 protein C14orf166 (protein, UniProt Q9Y224 1-244)
chain: MFRRKLTALDYHNPAGFNCKDETEFRNFIVWLEDQKIRHYKIEDRGNLRNIHSSDWPKFFEKYLRDVNCPFKIQDRQEAIDWLLGLAVRLEYGDNAEKYKDLVPDNSKTADNATKNAEPLINLDVNNPDFKAGVMALANLLQIQRHDDYLVMLKAIRILVQERLTQDAVAKANQTKEGLPVALDKHILGFDTGDAVLNEAAQILRLLHIEELRELQTKINEAIVAVQAIIADPKTDHRLGKVGR
Regarding B8, the binding entry is given as “binds”.

Values taken from PMC5687603.
